The other results are listed elsewhere or left out.
Assays:
Experiment in all cases: glycan array binding signal (z-score within array); higher = stronger binding
Conditions in all cases: glycan notation: IUPAC condensed, linker removed
Gal6S(b1-3)GlcNAc6S = molecular target: Gal6S(b1-3)GlcNAc6S
Method in brief: (§1)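 Arrays were curated from the Consortium for Functional Glycomics database, 3228 in total, and kept only where the protein sequence was available. Binding is expressed as a within-array Z-score. This score was averaged across arrays of the same protein sequence at different concentrations or buffers and across linkers, and negative values can be read as non-binding.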

Gal6S(b1-4)Glc = molecular target: Gal6S(b1-4)Glc
Method in brief: as §1

Gal6S(b1-4)Glc6S = molecular target: Gal6S(b1-4)Glc6S
Method in brief: as §1

Gal6S(b1-4)GlcNAc = molecular target: Gal6S(b1-4)GlcNAc
Method in brief: as §1

Gal6S(b1-4)GlcNAc6S = molecular target: Gal6S(b1-4)GlcNAc6S
Method in brief: as §1

GalNAc(a1-3)Gal = molecular target: GalNAc(a1-3)Gal
Method in brief: as §1

GalNAc(a1-3)GalNAc = molecular target: GalNAc(a1-3)GalNAc
Method in brief: as §1

[1] = molecular target: GalNAc(a1-3)GalNAc(b1-3)Gal(a1-4)Gal(b1-4)Glc
Method in brief: as §1

[2] = molecular target: GalNAc(a1-3)GalNAc(b1-3)Gal(a1-4)Gal(b1-4)GlcNAc
Method in brief: as §1

GalNAc(b1-3)Gal = molecular target: GalNAc(b1-3)Gal
Method in brief: as §1

[3] = molecular target: GalNAc(b1-3)Gal(a1-4)Gal(b1-4)GlcNAc
Method in brief: as §1

[4] = molecular target: GalNAc(b1-3)Gal(a1-4)Gal(b1-4)GlcNAc(b1-3)Gal(b1-4)Glc
Method in brief: as §1

[5] = molecular target: GalNAc(b1-3)Gal(a1-6)Gal(b1-4)Glc
Method in brief: as §1

GalNAc(b1-3)GalNAc = molecular target: GalNAc(b1-3)GalNAc
Method in brief: as §1

GalNAc(b1-3)GlcNAc = molecular target: GalNAc(b1-3)GlcNAc
Method in brief: as §1

GalNAc(b1-4)Gal(b1-4)Glc = molecular target: GalNAc(b1-4)Gal(b1-4)Glc
Method in brief: as §1

GalNAc(b1-4)GlcNAc = molecular target: GalNAc(b1-4)GlcNAc
Method in brief: as §1

[6] = molecular target: GalNAc(b1-4)GlcNAc(b1-2)Man
Method in brief: as §1

[7] = molecular target: GalNAc(b1-4)GlcNAc(b1-2)Man(a1-3)[GalNAc(b1-4)GlcNAc(b1-2)Man(a1-6)]Man(b1-4)GlcNAc(b1-4)GlcNAc
Method in brief: as §1

[8] = molecular target: GalNAc(b1-4)GlcNAc(b1-3)GalNAc(b1-4)GlcNAc
Method in brief: as §1

GalNAc(b1-4)GlcNAc6S = molecular target: GalNAc(b1-4)GlcNAc6S
Method in brief: as §1

GalNAc(b1-6)GalNAc = molecular target: GalNAc(b1-6)GalNAc
Method in brief: as §1

GalNAc3S(b1-4)GlcNAc = molecular target: GalNAc3S(b1-4)GlcNAc
Method in brief: as §1

GalNAc3S(b1-4)GlcNAc3S = molecular target: GalNAc3S(b1-4)GlcNAc3S
Method in brief: as §1

[9] = molecular target: GalNAc3S(b1-4)[Fuc(a1-3)]GlcNAc
Method in brief: as §1

GalNAc4S6S(b1-4)GlcNAc = molecular target: GalNAc4S6S(b1-4)GlcNAc
Method in brief: as §1

GalNAc6S(b1-4)GlcNAc = molecular target: GalNAc6S(b1-4)GlcNAc
Method in brief: as §1

Glc(a1-4)Glc = molecular target: Glc(a1-4)Glc
Method in brief: as §1

[10] = molecular target: Glc(a1-4)Glc(a1-4)Glc(a1-4)Glc
Method in brief: as §1

Glc(a1-6)Glc(a1-6)Glc = molecular target: Glc(a1-6)Glc(a1-6)Glc
Method in brief: as §1

[11] = molecular target: Glc(a1-6)Glc(a1-6)Glc(a1-6)Glc
Method in brief: as §1

Glc(b1-4)Glc = molecular target: Glc(b1-4)Glc
Method in brief: as §1

Glc(b1-6)Glc = molecular target: Glc(b1-6)Glc
Method in brief: as §1

GlcA(b1-3)Gal = molecular target: GlcA(b1-3)Gal
Method in brief: as §1

GlcA(b1-3)GlcNAc = molecular target: GlcA(b1-3)GlcNAc
Method in brief: as §1

GlcA(b1-6)Gal = molecular target: GlcA(b1-6)Gal
Method in brief: as §1

[12] = molecular target: GlcA3S(b1-3)Gal(b1-4)GlcNAc(b1-2)Man
Method in brief: as §1

B1: MFG-E8 (Mus musculus), P21956 (protein)
chain: MQVSRVLAALCGMLLCASGLFAASGDFCDSSLCLNGGTCLTGQDNDIYCLCPEGFTGLVCNETERGPCSPNPCYNDAKCLVTLDTQRGDIFTEYICQCPVGYSGIHCETETNYYNLDGEYMFTTAVPNTAVPTPAPTPDLSNNLASRCSTQLGMEGGAIADSQISASSVYMGFMGLQRWGPELARLYRTGIVNAWTASNYDSKPWIQVNLLRKMRVSGVMTQGASRAGRAEYLKTFKVAYSLDGRKFEFIQDESGGDKEFLGNLDNNSLKVNMFNPTLEAQYIKLYPVSCHRGCTLRFELLGCELHGCSEPLGLKNNTIPDSQMSASSSYKTWNLRAFGWYPHLGRLDNQGKINAWTAQSNSAKEWLQVDLGTQRQVTGIITQGARDFGHIQYVASYKVAHSDDGVQWTVYEEQGSSKVFQGNLDNNSHKKNIFEKPFMARYVRVLPVSWHNRITLRLELLGC
Gal6S(b1-3)GlcNAc6S
  glycan array binding signal (z-score): 3.04
Gal6S(b1-4)Glc
  glycan array binding signal (z-score): 0.149
Gal6S(b1-4)Glc6S
  glycan array binding signal (z-score): 0.108
Gal6S(b1-4)GlcNAc
  glycan array binding signal (z-score): -0.436
Gal6S(b1-4)GlcNAc6S
  glycan array binding signal (z-score): 2.98
GalNAc(a1-3)Gal
  glycan array binding signal (z-score): -0.652
GalNAc(a1-3)GalNAc
  glycan array binding signal (z-score): -0.724
[1]
  glycan array binding signal (z-score): 0.361
[2]
  glycan array binding signal (z-score): -0.695
GalNAc(b1-3)Gal
  glycan array binding signal (z-score): -0.341
[3]
  glycan array binding signal (z-score): -0.154
[4]
  glycan array binding signal (z-score): 0.031
[5]
  glycan array binding signal (z-score): -0.391
GalNAc(b1-3)GalNAc
  glycan array binding signal (z-score): -0.544
GalNAc(b1-3)GlcNAc
  glycan array binding signal (z-score): -0.265
GalNAc(b1-4)Gal(b1-4)Glc
  glycan array binding signal (z-score): 0.017
GalNAc(b1-4)GlcNAc
  glycan array binding signal (z-score): -0.309
[6]
  glycan array binding signal (z-score): -0.038
[7]
  glycan array binding signal (z-score): -0.848
[8]
  glycan array binding signal (z-score): -0.149
GalNAc(b1-4)GlcNAc6S
  glycan array binding signal (z-score): 0.057
GalNAc(b1-6)GalNAc
  glycan array binding signal (z-score): 0.146
GalNAc3S(b1-4)GlcNAc
  glycan array binding signal (z-score): 2.04
GalNAc3S(b1-4)GlcNAc3S
  glycan array binding signal (z-score): 1.39
[9]
  glycan array binding signal (z-score): 0.832
GalNAc4S6S(b1-4)GlcNAc
  glycan array binding signal (z-score): 9.76
GalNAc6S(b1-4)GlcNAc
  glycan array binding signal (z-score): 2.28
Glc(a1-4)Glc
  glycan array binding signal (z-score): -0.125
[10]
  glycan array binding signal (z-score): 0.077
Glc(a1-6)Glc(a1-6)Glc
  glycan array binding signal (z-score): -0.076
[11]
  glycan array binding signal (z-score): -0.038
Glc(b1-4)Glc
  glycan array binding signal (z-score): -0.148
Glc(b1-6)Glc
  glycan array binding signal (z-score): 2.4
GlcA(b1-3)Gal
  glycan array binding signal (z-score): -0.259
GlcA(b1-3)GlcNAc
  glycan array binding signal (z-score): -0.503
GlcA(b1-6)Gal
  glycan array binding signal (z-score): -0.784
[12]
  glycan array binding signal (z-score): 0.754
